Among the data in paper PMC3934890 are binding values, retold here.

Sequences of proteins named here, by UniProt entry; tags and fusion partners are left off.
UniProt Q04207: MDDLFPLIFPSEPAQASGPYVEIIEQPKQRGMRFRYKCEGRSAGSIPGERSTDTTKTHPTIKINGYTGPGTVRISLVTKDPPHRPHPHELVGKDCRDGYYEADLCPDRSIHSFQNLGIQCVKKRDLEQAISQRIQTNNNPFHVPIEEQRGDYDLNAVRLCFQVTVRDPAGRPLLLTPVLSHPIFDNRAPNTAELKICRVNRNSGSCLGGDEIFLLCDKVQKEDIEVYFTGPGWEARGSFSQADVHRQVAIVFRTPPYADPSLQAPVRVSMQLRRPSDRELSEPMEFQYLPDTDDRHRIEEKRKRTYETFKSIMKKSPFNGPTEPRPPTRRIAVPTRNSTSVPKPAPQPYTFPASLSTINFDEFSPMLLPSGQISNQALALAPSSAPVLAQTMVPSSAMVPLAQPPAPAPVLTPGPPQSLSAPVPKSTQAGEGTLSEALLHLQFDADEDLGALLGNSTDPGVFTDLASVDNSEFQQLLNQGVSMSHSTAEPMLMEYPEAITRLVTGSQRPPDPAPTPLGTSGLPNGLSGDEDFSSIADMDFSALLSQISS
UniProt P02340: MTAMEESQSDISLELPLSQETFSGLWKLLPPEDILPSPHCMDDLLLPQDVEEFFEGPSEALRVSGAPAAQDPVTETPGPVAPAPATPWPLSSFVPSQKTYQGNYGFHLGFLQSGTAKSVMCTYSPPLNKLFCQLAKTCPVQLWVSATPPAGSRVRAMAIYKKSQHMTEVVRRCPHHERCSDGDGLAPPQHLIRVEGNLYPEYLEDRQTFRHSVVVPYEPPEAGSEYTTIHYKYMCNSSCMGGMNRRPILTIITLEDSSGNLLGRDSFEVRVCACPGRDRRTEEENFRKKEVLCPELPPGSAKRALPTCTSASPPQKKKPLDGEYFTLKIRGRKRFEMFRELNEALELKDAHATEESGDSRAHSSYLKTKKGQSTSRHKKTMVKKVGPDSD

The target in this assay is p65, a prominent member of the NFκB family (mouse (endogenous in heart tissue)) (UniProt Q04207). Kind of assay: co-IP; pre-cleared nuclear extract from heart homogenate of ADR-treated mice in RIPA buffer; incubated with rabbit anti-p65 overnight at 4°C, anti-rabbit IgG beads 2 h at room temperature, 4 washes with RIPA; Western blot with mouse anti-p53, reprobed with anti-p65. A general note: A western blot detects proteins with antibodies after separation by electrophoresis.

These are yes or no findings as the source states them, for the method shown. In cells and extracts the contact can be indirect. Some binding calls cover weakened binding; strength is not graded here.

On to p53 (from UniProt P02340 1-390), for which the binding entry was “binds”.
